Results deposited as PubChem BioAssay AID1671195 (Yale University, 2021)
Aim: 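Knockdowns that increase or decrease uptake of fluorescent LDL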 (primary screen). Cells: human Huh7 hepatoma cells. Reagent: siRNA pool against human genes, 18 nM. Duration: about 2 to 2.5 days of knockdown, then 8 h LDL uptake. Treatment: DiI-labelled LDL at 30 µg/ml for 8 h, in lipoprotein-deficient serum medium. Measured: 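Fluorescent LDL signal imaged in cells, scaled to the plate median, robust z-score for each replicate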. Direction: robust z-score: higher = more LDL uptake after knockdown. Rule for the call: 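a gene counts as active if at least two replicate z-scores exceed ±2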.
In all, the deposit lists about 22,000 reagents; shown is an unselected part. Over the whole deposit, about 1,510 (6.9%) are marked active. 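Active includes knockdowns raising or lowering LDL uptake; positive z-scores mean more uptake, negative mean less.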

| Gene | robust z-score, replicate 1 | robust z-score, replicate 2 | robust z-score, replicate 3 | call |
| --- | --- | --- | --- | --- |
| SCN3B | 2.18 | 1.67 | 2.05 | active |
| NKAPP1 | -1.37 | -1.35 | -0.555 | inactive |
| CPNE7 | -0.493 | 0.213 | -1.34 | inactive |
| PDE4D | -1.81 | -1.6 | -1.93 | inactive |
| TARDBP | -0.423 | 1.56 | 0.458 | inactive |
| GRK3 | 0.778 | 1.22 | 0.663 | inactive |
| SERPINI2 | 0.778 | 2.01 | 0.912 | inactive |
| BCO2 | -1.33 | -1.42 | -1.24 | inactive |
| WBP1L | 1.45 | 0.65 | 2.08 | inactive |
| PDCD10 | -1.13 | -0.446 | -0.736 | inactive |
| LCMT1 | 0.688 | 0.258 | 0.655 | inactive |
| LOC388477 (retired record) | 1.89 | 1.11 | 1.61 | inactive |
| POLR3KP2 | 0.878 | 0.795 | 1.75 | inactive |
| CYFIP1 | 0.557 | 3.3 | 0.0725 | inactive |
| CD70 | -1.51 | -1.24 | -1.15 | inactive |
| RTP1 | 0.149 | 0.216 | 0.665 | inactive |
| TGFBR2 | 0.15 | 0.595 | 0.0446 | inactive |
| SLC2A9 | -1.19 | -1.24 | -1.07 | inactive |
| CEP89 | 0.461 | -0.329 | 0.518 | inactive |
| VPS13B | -1.51 | -0.557 | -1.78 | inactive |
| PPDPF | -1.94 | -1.57 | -1.93 | inactive |
| DOCK2 | -1.37 | -1.44 | -1.17 | inactive |
| LOC441905 (retired record) | -0.624 | -0.531 | -0.401 | inactive |
| ELP1 | 0.128 | 0.487 | 0.554 | inactive |
| LOC441393 (retired record) | 0.338 | -0.121 | -0.0899 | inactive |
| RAD51C | 0.726 | 0.501 | 0.904 | inactive |
| ADGRE1 | 0.738 | -0.322 | 0.16 | inactive |
| LOC440901 (retired record) | -0.82 | -1.15 | -0.977 | inactive |
| DUS4L | 0.912 | 0.485 | -0.0927 | inactive |
| DCAF12L2 | -1.44 | -1.62 | -1.59 | inactive |
| ARHGAP1 | -0.469 | -0.455 | -0.405 | inactive |
| ERF | 0.937 | 0.339 | 2.58 | inactive |
| AKR1D1 | -0.0824 | 0.421 | 0.0279 | inactive |
| TREX1 | -0.337 | -0.685 | -0.771 | inactive |
| MT1B | -0.433 | -1.45 | -0.51 | inactive |
| REPS1 | 0.483 | 0.914 | 1.57 | inactive |
| SRPRB | 1.01 | -0.0637 | 0.181 | inactive |
| PDZD2 | -1.88 | -1.22 | -1.67 | inactive |
| ARSL | 5.09 | 4.47 | 3.83 | active |
| LOC440916 (retired record) | 0.332 | 0.284 | 0.431 | inactive |
| SPRY2 | -0.516 | -1.73 | -0.0146 | inactive |
| FRZB | -0.779 | -1.93 | -1.22 | inactive |
| EEIG2 | -0.338 | -0.131 | 0.176 | inactive |
| MMP3 | 0.0112 | 1.37 | 0.325 | inactive |
| FOXL2NB | -1.4 | -1.32 | -1.19 | inactive |
| LOC442265 (retired record) | -0.677 | -0.931 | -0.125 | inactive |
| H2BC1 | 0.341 | 0.396 | 0.0884 | inactive |
| CACNG5 | -0.207 | -0.585 | 0.0345 | inactive |
| MAP1LC3A | 0.832 | 0.0238 | 1.05 | inactive |
| EPHA6 | 0.295 | 0.0527 | -0.187 | inactive |
| TMEM171 | -0.176 | 0.281 | -0.285 | inactive |
| SKA3 | -0.2 | -0.33 | -0.146 | inactive |
| KRABD5 | -0.0178 | 0.384 | 0.261 | inactive |
| FAM24A | 0.128 | -0.153 | -0.474 | inactive |
| TRMT6 | -1.82 | -0.987 | -1.42 | inactive |
| HYLS1 | -1.45 | -1.56 | -1.63 | inactive |
| PLD5 | -0.764 | 0.0335 | -0.126 | inactive |
| OR13H1 | -0.657 | -0.883 | -0.689 | inactive |
| LOC342659 (retired record) | -1.3 | -1.52 | -1.19 | inactive |
| JCAD | -0.469 | -0.7 | -0.691 | inactive |
| LMBRD1 | -1.23 | -1.36 | 1.87 | inactive |
| LOC389019 (retired record) | -0.153 | -0.103 | -0.416 | inactive |
| KLHL6 | -1.93 | -2.16 | -2.12 | active |
| TMEM151B | -0.113 | -0.281 | -0.139 | inactive |
| MARCO | 0.395 | 0.479 | -0.173 | inactive |
| SFRP2 | 2.57 | 2.16 | 0.404 | active |
| FUT2 | -1.08 | -0.983 | -1.05 | inactive |
| RSPH6A | 0.298 | 0.25 | -0.0219 | inactive |

Called active, of those listed so far:
| Gene | robust z-score, replicate 1 | robust z-score, replicate 2 | robust z-score, replicate 3 | call |
| --- | --- | --- | --- | --- |
| SCN3B | 2.18 | 1.67 | 2.05 | active |
| ARSL | 5.09 | 4.47 | 3.83 | active |
| KLHL6 | -1.93 | -2.16 | -2.12 | active |
| SFRP2 | 2.57 | 2.16 | 0.404 | active |
